{"source": "paper PMC5996148", "assay_in_all_cases": "protein microarray (ProtoArray v5.0), streptavidin-Alexa Fluor 647", "conditions_in_all_cases": "3'-biotin; 20 mM Tris (pH 7.5), 5 mM MgCl2, 100 mM KCl, 0.1% Tween-20, A/T-rich and random oligonucleotide blockers; temperature not stated; high values mean tight binding", "key": {"[1]": {"system": "TOM1-like protein 2 (human)"}, "[2]": {"system": "TPD52L1 (human)"}, "[3]": {"system": "TPI1 (human)"}, "[4]": {"system": "TPK1 (human)"}, "[5]": {"system": "TPM1 (human)"}, "[6]": {"system": "TPM2 (human)"}, "[7]": {"system": "TPM3 (human)"}, "[8]": {"system": "TPM4 (human)"}, "[9]": {"system": "TPMT (human)"}, "[10]": {"system": "TPO (human)"}, "[11]": {"system": "TPP1 (human)"}, "[12]": {"system": "TPT1 (human)"}, "[13]": {"system": "TRA16 (human)"}, "[14]": {"system": "TRAF2 (human)"}, "[15]": {"system": "TRAPPC3 (human)"}, "[16]": {"system": "TRAPPC4 (human)"}, "[17]": {"system": "TRBV5-4 (human)"}, "[18]": {"system": "TRDN (human)"}, "[19]": {"target": "T1, TREX1 (UniProt Q9NSU2)", "T1 sequence": "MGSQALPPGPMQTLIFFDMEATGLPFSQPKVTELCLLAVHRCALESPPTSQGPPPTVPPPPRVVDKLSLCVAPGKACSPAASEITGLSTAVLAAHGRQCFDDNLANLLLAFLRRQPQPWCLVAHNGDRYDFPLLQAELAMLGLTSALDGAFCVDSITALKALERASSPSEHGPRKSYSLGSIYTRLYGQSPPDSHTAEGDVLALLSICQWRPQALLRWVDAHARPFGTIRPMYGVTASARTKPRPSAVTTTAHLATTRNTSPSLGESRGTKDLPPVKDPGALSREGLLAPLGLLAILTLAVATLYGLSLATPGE"}, "[20]": {"system": "TRH (human)"}}, "note": "Where “and” joins values, the source holds several entries; their conditions need not be identical. Equal entries are not always repeated. The list shows a part of the results. For some assays here: Construct or isoform of the protein are uncertain.", "data": [{"sequence": "GGGAGGCTGAGGCAGG [G4-1 biotinylated (PQS2)]", "values": [{"measurement": "binding signal", "setting": "[1]", "result": -0.366, "unit": "z-score"}, {"measurement": "binding signal", "setting": "[2]", "result": -0.265, "unit": "z-score"}, {"measurement": "binding signal", "setting": "[3]", "result": -0.308, "unit": "z-score"}, {"measurement": "binding signal", "setting": "[4]", "result": -0.279, "unit": "z-score"}, {"measurement": "binding signal", "setting": "[5]", "result": -0.334, "unit": "z-score"}, {"measurement": "binding signal", "setting": "[6]", "result": -0.283, "unit": "z-score"}, {"measurement": "binding signal", "setting": "[7]", "result": "-0.356 z-score and -0.343 z-score"}, {"measurement": "binding signal", "setting": "[8]", "result": -0.343, "unit": "z-score"}, {"measurement": "binding signal", "setting": "[9]", "result": -0.305, "unit": "z-score"}, {"measurement": "binding signal", "setting": "[10]", "result": -0.3, "unit": "z-score"}, {"measurement": "binding signal", "setting": "[11]", "result": -0.324, "unit": "z-score"}, {"measurement": "binding signal", "setting": "[12]", "result": -0.351, "unit": "z-score"}, {"measurement": "binding signal", "setting": "[13]", "result": -0.334, "unit": "z-score"}, {"measurement": "binding signal", "setting": "[14]", "result": -0.304, "unit": "z-score"}, {"measurement": "binding signal", "setting": "[15]", "result": -0.336, "unit": "z-score"}, {"measurement": "binding signal", "setting": "[16]", "result": -0.311, "unit": "z-score"}, {"measurement": "binding signal", "setting": "[17]", "result": -0.33, "unit": "z-score"}, {"measurement": "binding signal", "setting": "[18]", "result": -0.322, "unit": "z-score"}, {"measurement": "binding signal", "setting": "[19]", "result": -0.261, "unit": "z-score"}, {"measurement": "binding signal", "setting": "[20]", "result": -0.333, "unit": "z-score"}]}]}
